In the supplement of paper PMC10849652:
This is one part of the list.

Protein sequences, listed by entry. Tags and fused reporters are not part of them. Lines headed by an entry give the natural chain unless they say otherwise; changes in a name come on top.
UniProt O60504: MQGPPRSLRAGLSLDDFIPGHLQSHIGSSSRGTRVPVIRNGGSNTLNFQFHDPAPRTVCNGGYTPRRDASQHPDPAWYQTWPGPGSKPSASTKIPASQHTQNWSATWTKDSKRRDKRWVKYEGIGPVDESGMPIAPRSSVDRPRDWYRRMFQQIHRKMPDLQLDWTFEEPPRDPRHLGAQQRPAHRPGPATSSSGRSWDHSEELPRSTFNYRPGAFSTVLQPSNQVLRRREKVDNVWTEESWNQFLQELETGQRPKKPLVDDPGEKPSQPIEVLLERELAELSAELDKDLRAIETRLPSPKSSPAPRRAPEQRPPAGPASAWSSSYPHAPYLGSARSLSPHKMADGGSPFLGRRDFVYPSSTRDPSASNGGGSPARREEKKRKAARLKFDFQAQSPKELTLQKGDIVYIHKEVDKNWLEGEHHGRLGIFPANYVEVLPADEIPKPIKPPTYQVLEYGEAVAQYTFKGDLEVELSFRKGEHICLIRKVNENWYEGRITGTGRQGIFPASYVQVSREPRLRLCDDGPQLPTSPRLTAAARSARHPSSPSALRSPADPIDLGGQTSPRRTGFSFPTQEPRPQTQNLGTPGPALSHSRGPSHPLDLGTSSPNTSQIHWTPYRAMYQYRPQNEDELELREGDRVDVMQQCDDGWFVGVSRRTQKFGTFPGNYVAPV
UniProt Q53HV7: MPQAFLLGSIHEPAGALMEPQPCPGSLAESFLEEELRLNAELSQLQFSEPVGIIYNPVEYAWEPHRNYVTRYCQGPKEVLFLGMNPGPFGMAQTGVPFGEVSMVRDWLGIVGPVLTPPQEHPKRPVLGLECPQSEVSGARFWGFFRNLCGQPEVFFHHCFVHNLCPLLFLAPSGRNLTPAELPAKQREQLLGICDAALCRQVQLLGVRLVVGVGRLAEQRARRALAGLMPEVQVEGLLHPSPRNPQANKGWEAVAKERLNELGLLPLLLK
UniProt Q5SQN1: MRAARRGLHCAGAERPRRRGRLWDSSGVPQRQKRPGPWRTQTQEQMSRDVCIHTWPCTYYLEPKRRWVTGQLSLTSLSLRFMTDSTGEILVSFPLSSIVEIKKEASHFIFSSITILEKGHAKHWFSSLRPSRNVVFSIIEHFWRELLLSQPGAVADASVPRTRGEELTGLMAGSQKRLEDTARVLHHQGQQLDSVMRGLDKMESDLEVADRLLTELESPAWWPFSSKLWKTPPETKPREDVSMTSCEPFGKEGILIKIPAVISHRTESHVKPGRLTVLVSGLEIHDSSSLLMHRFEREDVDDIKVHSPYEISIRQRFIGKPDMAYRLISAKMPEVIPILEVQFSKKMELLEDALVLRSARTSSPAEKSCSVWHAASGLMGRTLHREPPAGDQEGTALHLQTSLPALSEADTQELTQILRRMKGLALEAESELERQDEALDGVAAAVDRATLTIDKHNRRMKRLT
UniProt P0DMW3: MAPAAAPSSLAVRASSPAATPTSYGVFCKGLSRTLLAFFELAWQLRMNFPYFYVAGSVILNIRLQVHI
UniProt Q5VYV7: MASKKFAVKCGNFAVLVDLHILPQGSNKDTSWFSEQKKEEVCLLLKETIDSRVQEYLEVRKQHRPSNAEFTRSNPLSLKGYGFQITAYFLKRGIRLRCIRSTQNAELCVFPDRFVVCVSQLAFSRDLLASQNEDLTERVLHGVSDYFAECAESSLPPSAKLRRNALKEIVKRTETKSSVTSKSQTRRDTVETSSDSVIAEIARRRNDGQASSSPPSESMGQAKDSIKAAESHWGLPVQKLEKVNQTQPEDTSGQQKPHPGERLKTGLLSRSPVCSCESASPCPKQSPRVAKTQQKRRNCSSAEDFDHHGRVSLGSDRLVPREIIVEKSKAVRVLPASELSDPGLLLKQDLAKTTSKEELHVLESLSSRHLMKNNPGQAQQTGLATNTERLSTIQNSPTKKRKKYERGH
UniProt Q92925, whole entry, looked up: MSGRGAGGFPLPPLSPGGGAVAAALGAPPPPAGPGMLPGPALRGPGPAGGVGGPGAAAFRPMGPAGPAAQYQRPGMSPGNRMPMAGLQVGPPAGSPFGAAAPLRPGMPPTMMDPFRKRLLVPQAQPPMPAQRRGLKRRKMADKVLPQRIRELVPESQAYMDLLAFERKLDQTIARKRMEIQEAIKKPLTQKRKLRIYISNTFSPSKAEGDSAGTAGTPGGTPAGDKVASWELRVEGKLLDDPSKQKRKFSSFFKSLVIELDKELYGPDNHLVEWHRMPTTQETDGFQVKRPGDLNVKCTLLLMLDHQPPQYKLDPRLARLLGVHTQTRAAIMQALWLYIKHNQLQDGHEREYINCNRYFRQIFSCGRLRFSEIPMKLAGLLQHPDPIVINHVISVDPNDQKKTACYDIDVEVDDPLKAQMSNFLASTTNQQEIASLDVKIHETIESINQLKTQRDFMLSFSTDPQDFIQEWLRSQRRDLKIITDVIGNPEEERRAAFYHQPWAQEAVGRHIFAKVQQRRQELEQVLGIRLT
UniProt Q8TAD8: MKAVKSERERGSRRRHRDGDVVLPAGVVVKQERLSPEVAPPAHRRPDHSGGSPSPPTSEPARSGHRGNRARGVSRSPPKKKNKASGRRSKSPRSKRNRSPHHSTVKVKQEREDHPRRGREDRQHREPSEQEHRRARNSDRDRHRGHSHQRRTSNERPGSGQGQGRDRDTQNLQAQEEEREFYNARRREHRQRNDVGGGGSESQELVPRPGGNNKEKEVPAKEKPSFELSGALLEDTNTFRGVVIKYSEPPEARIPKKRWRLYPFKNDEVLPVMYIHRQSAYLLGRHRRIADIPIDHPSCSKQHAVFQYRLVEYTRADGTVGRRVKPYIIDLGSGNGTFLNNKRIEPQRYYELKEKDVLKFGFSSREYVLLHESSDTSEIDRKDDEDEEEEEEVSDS
UniProt Q86UD5: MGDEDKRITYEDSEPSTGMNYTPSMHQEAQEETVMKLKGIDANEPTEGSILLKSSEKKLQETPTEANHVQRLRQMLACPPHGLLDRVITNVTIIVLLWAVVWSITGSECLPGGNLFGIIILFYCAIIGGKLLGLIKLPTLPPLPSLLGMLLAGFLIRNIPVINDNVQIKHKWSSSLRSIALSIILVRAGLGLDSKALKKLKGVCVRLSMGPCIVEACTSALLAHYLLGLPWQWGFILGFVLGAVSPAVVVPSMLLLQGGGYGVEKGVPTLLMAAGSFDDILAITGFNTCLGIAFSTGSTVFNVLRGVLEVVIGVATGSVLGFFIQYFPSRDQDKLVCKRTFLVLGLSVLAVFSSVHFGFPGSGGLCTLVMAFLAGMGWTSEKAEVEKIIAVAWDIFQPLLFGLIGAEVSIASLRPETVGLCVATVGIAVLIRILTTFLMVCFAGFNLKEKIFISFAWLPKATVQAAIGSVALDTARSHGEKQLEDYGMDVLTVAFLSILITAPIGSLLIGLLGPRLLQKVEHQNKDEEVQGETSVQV
UniProt Q9NXE4: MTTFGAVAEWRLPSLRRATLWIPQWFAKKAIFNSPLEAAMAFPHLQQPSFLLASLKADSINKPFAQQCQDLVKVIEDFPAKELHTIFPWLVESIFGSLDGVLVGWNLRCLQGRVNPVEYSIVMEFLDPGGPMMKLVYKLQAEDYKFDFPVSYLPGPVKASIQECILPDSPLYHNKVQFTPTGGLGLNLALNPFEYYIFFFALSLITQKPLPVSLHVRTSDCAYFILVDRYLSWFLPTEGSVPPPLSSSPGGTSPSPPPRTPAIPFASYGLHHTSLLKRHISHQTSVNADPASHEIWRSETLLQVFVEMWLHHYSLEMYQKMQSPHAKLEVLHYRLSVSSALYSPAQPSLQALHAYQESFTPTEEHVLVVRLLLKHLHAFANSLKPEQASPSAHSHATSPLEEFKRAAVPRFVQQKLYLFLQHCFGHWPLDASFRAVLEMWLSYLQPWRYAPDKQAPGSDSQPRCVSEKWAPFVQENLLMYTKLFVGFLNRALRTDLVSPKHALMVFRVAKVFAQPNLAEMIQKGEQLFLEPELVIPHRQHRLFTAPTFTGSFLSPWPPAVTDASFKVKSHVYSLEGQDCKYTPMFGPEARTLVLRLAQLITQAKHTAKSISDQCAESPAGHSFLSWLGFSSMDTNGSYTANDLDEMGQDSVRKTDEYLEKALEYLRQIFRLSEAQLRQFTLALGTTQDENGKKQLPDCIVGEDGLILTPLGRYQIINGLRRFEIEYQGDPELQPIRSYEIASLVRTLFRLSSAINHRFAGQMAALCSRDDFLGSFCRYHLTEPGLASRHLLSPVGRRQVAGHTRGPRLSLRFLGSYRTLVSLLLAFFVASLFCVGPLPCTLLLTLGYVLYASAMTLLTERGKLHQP
UniProt P51531, whole entry, looked up: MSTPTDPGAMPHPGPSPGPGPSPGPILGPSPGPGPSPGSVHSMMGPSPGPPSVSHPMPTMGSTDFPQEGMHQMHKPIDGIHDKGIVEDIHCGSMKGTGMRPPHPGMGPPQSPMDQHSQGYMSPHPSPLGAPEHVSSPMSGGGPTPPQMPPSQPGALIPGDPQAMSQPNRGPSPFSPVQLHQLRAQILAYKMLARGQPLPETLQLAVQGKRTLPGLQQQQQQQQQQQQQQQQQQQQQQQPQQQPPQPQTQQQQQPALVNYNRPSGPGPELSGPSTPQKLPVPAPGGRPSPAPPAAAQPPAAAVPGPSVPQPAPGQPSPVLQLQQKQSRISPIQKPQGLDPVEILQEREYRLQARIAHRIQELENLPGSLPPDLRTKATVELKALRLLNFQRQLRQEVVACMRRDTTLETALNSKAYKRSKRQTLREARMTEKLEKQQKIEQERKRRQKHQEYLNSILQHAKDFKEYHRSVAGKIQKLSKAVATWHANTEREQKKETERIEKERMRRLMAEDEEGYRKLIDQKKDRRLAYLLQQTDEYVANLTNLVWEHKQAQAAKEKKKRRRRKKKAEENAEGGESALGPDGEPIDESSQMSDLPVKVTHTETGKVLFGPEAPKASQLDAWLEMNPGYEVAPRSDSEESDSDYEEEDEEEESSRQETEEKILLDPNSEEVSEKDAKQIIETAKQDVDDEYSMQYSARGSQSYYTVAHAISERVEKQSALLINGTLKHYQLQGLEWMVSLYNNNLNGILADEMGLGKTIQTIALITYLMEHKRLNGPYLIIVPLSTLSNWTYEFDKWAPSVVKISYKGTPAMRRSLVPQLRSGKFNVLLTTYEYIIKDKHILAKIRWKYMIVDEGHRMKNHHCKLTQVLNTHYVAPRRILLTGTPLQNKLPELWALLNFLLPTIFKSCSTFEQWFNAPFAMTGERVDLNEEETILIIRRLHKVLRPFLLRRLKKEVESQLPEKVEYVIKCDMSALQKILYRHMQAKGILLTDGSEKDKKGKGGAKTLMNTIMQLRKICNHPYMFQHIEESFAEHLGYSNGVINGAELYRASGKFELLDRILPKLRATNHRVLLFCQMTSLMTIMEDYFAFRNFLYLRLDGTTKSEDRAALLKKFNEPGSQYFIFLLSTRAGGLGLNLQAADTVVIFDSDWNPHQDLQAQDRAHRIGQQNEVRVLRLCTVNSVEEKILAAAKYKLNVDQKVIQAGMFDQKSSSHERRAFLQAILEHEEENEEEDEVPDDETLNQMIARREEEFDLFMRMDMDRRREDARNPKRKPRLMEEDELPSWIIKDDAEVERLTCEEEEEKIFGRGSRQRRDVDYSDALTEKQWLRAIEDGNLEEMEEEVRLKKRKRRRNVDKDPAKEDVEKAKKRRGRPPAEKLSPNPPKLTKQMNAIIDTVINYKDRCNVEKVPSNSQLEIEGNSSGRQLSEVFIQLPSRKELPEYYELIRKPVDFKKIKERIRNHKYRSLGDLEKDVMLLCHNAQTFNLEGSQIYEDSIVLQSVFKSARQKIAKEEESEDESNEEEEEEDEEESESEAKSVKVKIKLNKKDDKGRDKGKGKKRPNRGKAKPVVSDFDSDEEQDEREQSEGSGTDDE
UniProt Q02446, whole entry, looked up: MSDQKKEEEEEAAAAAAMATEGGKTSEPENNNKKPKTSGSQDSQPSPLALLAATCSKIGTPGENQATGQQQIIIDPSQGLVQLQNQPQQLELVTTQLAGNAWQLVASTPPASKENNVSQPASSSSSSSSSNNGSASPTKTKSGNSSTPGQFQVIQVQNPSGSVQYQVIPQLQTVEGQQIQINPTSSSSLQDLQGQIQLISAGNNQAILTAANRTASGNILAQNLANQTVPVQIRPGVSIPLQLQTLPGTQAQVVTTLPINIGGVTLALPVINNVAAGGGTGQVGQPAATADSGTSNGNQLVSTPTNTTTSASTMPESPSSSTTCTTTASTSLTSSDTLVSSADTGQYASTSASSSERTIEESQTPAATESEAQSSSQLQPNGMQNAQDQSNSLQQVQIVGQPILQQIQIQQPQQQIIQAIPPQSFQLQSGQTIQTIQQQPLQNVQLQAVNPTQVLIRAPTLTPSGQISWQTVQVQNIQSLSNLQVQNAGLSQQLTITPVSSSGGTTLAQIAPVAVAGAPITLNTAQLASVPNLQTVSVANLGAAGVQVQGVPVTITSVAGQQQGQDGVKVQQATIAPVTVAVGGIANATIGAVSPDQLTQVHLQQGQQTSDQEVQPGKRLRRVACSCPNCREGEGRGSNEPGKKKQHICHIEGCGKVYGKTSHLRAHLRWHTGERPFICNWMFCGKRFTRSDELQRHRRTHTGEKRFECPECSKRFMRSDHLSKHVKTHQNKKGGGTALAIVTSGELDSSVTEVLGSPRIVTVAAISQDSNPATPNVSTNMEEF

What was measured:
Assay in all cases: log2 fold change, soluble protein after heating vs DMSO (PISA); higher = thermal stabilisation; K562 cells, 10 uM, 30 min; active = over 0.2 and 3.5 SD of the protein, either way, in both replicates (recomputed)
[1] = compound: CC1=C(C=C(C=C1)NC(=O)C2=CC(=CC=C2)N(C)C)NC(=O)C3=CC=C(C=C3)O
In short: (§1)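 For each measurement, 10 μM compound was applied for 30 min to K562 cells at 2×10^6 cells/mL. Aliquots were heated for 3 min across 48°C-58°C, pooled, and extracted in PBS with 0.5% NP-40 at 4°C; the supernatant after 21,000xg for 90 min was soluble protein. This was quantified by TMTpro 16plex LC-MS/MS with channel sums equalised, and thermal stability was reported relative to control samples from duplicates, on a log2 fold-change scale.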

vemurafenib = compound: CCCS(=O)(=O)Nc1ccc(F)c(C(=O)c2c[nH]c3ncc(-c4ccc(Cl)cc4)cc23)c1F [vemurafenib]
In short: as §1

[2] = compound: CCCc1cc(C)[nH]c(=O)c1CNC(=O)c1cc(-c2ccnc(N3CCN(C)CC3)c2)cc2c1cnn2C(C)C
In short: as §1

givinostat = compound: CCN(CC)Cc1ccc2cc(COC(=O)Nc3ccc(C(=O)NO)cc3)ccc2c1 [givinostat]
In short: as §1

[3] = compound: CCn1c(C(=O)N(C2CC2)C2CC2)cc2c3c(ncn3C)c(Nc3cc(C)n(C)n3)nc21
In short: as §1

[4] = compound: CN(C)CC(=O)Nc1ccc2[nH]c(=O)c3ccccc3c2c1
In short: as §1

[5] = compound: CC1=CC=C(C=C1)SC2=C3C=C(SC3=CN=C2)C(=O)N
In short: as §1

[6] = compound: CC1=NC(=CC=C1)C2=C(N=C(N2)C(C)(C)C)C3=CC4=NC=CN=C4C=C3
In short: as §1

[7] = compound: CCCS(=O)(=O)Nc1ccc(F)c(C(=O)c2c[nH]c3ncc(Cl)cc23)c1F
In short: as §1

barasertib = compound: CCN(CCCOc1ccc2c(Nc3cc(CC(=O)Nc4cccc(F)c4)[nH]n3)ncnc2c1)CCOP(=O)(O)O [barasertib]
In short: as §1

[8] = compound: CC[C@@H]1C(=O)N(C)c2cnc(Nc3ccc(C(=O)NC4CCN(C)CC4)cc3OC)nc2N1C1CCCC1
In short: as §1

volasertib = compound: CC[C@@H]1C(=O)N(C)c2cnc(Nc3ccc(C(=O)N[C@H]4CC[C@H](N5CCN(CC6CC6)CC5)CC4)cc3OC)nc2N1C(C)C [volasertib]
In short: as §1

[9] = compound: CC[C@H](C)N1C=C(C2=C(C=C(C=C21)C3=CN=C(C=C3)N4CCNCC4)C(=O)NCC5=C(C=C(NC5=O)C)C)C
In short: as §1

[10] = compound: CCn1cc(-c2ccnc3[nH]c(-c4cccc(CN(C)C)c4)cc23)c(-c2ccc(NC(=O)N(C)C)cc2)n1
In short: as §1

rosiglitazone = compound: CN(CCOC1=CC=C(C=C1)C[C@H]2C(=O)NC(=O)S2)C3=CC=CC=N3 (racemic) [rosiglitazone]
In short: as §1

[11] = compound: CN1C2=C(C3=C1C(=O)N(N=C3)CC4=CC(=CC=C4)N)SC(=C2)S(=O)C
In short: as §1

[12] = compound: CN1CCC(CNc2ccc3ncc(-c4cccc(OC(F)(F)F)c4)n3n2)CC1
In short: as §1

Nexturastat A = compound: CCCCN(Cc1ccc(C(=O)NO)cc1)C(=O)Nc1ccccc1 [Nexturastat A]
In short: as §1

epoxomicin = compound: CC[C@H](C)[C@@H](C(=O)N[C@@H]([C@@H](C)O)C(=O)N[C@@H](CC(C)C)C(=O)[C@]1(CO1)C)NC(=O)[C@H]([C@@H](C)CC)N(C)C(=O)C [epoxomicin]
In short: as §1

[13] = compound: CC1=C(C=C(C=C1)NC(=O)C2=CC(=CC=C2)C(C)(C)C#N)NC3=CC4=C(C=C3)N=CN(C4=O)C
In short: as §1

Measured: log2 fold change

SMARCAL1 (UniProt Q9NZC9)
inactive: [1] -0.104 | vemurafenib -0.092 | [2] 0.02 | givinostat 0.125 | [3] -0.156 | [4] 0.31

SNRPD2 (UniProt K7EJB5)
inactive: [1] -0.023 | [5] -0.102 | [6] 0.004 | vemurafenib -0.163 | [7] -0.159 | [2] -0.138 | barasertib -0.016 | [8] 0.162 | volasertib 0.072 | [9] -0.136 | [10] 0.117 | [4] -0.105 | rosiglitazone 0.123 | [11] 0.041 | [12] 0.054

SMIM19 (UniProt Q96E16)
inactive: [1] -0.112 | [5] 0.209 | vemurafenib -0.092 | [7] -0.023 | [8] -0.097 | volasertib -0.016 | [4] -0.182 | [11] -0.345

SMR3B (UniProt P02814)
inactive: barasertib 0.372 | [9] 0.83 | rosiglitazone -0.054

SORBS3 (UniProt O60504)
inactive: Nexturastat A -0.158 | givinostat -0.038 | barasertib 0.043 | [9] 0.09 | epoxomicin 0 | [3] -0.117 | [10] -0.228 | rosiglitazone 0.074 | [12] 0.038

SNX4 (UniProt O95219)
inactive: [1] -0.062 | [10] 0.115 | [12] -0.04

SLPI (UniProt P03973)
inactive: [1] 1.74 | [6] 1.02

SLC9A6 isoform 3 (UniProt Q92581)
inactive: [5] -0.152 | [7] -0.152 | givinostat -0.021 | barasertib 0.109 | [8] -0.041 | volasertib -0.045 | [11] 0.008

SNX30 (UniProt Q5VWJ9)
inactive: [13] -0.118 | Nexturastat A 0.35 | epoxomicin 0.088

SMIM29 (UniProt Q86T20)
inactive: [13] -0.098 | givinostat 0.12 | [3] 0.066 | [11] -0.133

SNRPN isoform 2 (UniProt P63162)
inactive: [1] -0.024 | [5] -0.132 | [6] 0.146 | [7] -0.26 | [8] 0.042 | volasertib -0.566 | [10] 0.369 | [12] 0.233

SMUG1 (UniProt Q53HV7)
inactive: [13] -0.025 | [2] -0.044 | [8] -0.113 | [9] 0.147

SNAP47 (UniProt Q5SQN1)
inactive: Nexturastat A 0.047 | vemurafenib -0.112 | givinostat 0.177 | epoxomicin 0.16 | [3] -0.106 | [4] 0.041

SMIM10L1 (UniProt P0DMW3)
inactive: givinostat -0.102 | [3] -0.169

SOX7 isoform 2 (UniProt Q9BT81)
inactive: [1] 0.058 | [5] -0.08 | [6] -0.272 | Nexturastat A 0.159 | vemurafenib -0.153 | [7] -0.043 | [2] 0.083 | givinostat 0.196 | barasertib -0.088 | volasertib 0.257 | [9] -0.278 | epoxomicin -0.183 | [3] -0.033 | [10] 0.158 | [4] -0.19 | rosiglitazone -0.151 | [11] 0.312 | [12] 0.128

SLX4IP (UniProt Q5VYV7)
inactive: [5] -0.18 | [7] 0.056 | volasertib -0.238

SMG6 (UniProt Q86US8)
inactive: [13] 0.207 | Nexturastat A 0.129 | barasertib -0.174 | [9] -0.258 | epoxomicin -0.142 | rosiglitazone 0.352 | [11] 0.173

SMU1 isoform 2 (UniProt Q2TAY7)
inactive: [6] 0.119 | barasertib -0.08 | [8] 0.14 | rosiglitazone 0.145

SOX6 (UniProt P35712)
inactive: [1] 0.631 | [5] 0.043 | vemurafenib -0.123 | [7] -0.174 | [2] -0.069 | volasertib -0.246 | [4] -0.052

SMARCD2 (UniProt Q92925)
inactive: [5] -0.071 | [6] -0.048 | [7] 0.215 | [2] 0.222 | givinostat 0.02 | [8] -0.314 | volasertib -0.252 | [3] 0.034 | [10] -0.046 | [12] -0.117

SMPDL3A (UniProt Q92484)
inactive: Nexturastat A 0.049 | epoxomicin -0.069 | [11] 0.303

SNIP1 (UniProt Q8TAD8)
inactive: [10] 0.205 | [12] -0.036

SLC9B2 (UniProt Q86UD5)
inactive: Nexturastat A 0.006 | vemurafenib 0.047 | epoxomicin -0.07 | [4] 0.084

SMARCD1 (UniProt Q96GM5)
inactive: [2] -0.065 | givinostat 0.163 | [3] -0.024

Fetched one by one from the entries so far, 2 records:
SMARCD2 (UniProt Q92925)
inactive: [5] -0.071 | [6] -0.048 | [7] 0.215 | [2] 0.222 | givinostat 0.02 | [8] -0.314 | volasertib -0.252 | [3] 0.034 | [10] -0.046 | [12] -0.117

SMPDL3A (UniProt Q92484)
inactive: Nexturastat A 0.049 | epoxomicin -0.069 | [11] 0.303

(further entries)

SMPD4 isoform 2 (UniProt Q9NXE4)
inactive: [5] 0.162 | [6] -0.023 | vemurafenib -0.301 | [7] 0.099 | [2] -0.035 | barasertib 0.034 | volasertib -0.234 | [10] -0.236 | [4] -0.044 | [11] 0.056 | [12] -0.441

SMIM11A (UniProt P58511)
inactive: [6] -0.008 | barasertib -0.227 | [9] -0.125 | rosiglitazone -0.093

SMARCA2 (UniProt P51531)
inactive: [1] 0.053 | [2] -0.11 | givinostat 0.013 | barasertib -0.111 | [8] 0.162 | [9] -0.131 | [3] 0.01 | [10] 0.053 | rosiglitazone -0.041 | [12] 0.062

SNX27 (UniProt Q96L92)
inactive: [1] 0 | [6] 0.034 | Nexturastat A 0.136 | vemurafenib 0.144 | givinostat 0.168 | [8] 0.067 | epoxomicin -0.066 | [3] -0.113 | [10] 0.107 | [4] -0.035 | [11] 0.226 | [12] -0.2

SNAPC5 (UniProt O75971)
inactive: [5] -0.035 | [6] 0.04 | Nexturastat A 0.066 | vemurafenib 0.055 | [7] -0.042 | givinostat 0.038 | barasertib 0.079 | volasertib 0.083 | [9] -0.03 | epoxomicin 0.04 | [3] 0.162 | [10] -0.034 | [4] 0.043 | rosiglitazone -0.138 | [11] 0.015 | [12] 0.071

SP4 (UniProt Q02446)
inactive: [1] 0.18 | [6] -0.026 | [8] 0.111 | [9] -0.005 | [10] 0.162 | [12] 0.121
